One molecule from paper PMC2856670 can be followed below.

Amino acid sequences for entries named in this document (tags omitted).
UniProt P40160: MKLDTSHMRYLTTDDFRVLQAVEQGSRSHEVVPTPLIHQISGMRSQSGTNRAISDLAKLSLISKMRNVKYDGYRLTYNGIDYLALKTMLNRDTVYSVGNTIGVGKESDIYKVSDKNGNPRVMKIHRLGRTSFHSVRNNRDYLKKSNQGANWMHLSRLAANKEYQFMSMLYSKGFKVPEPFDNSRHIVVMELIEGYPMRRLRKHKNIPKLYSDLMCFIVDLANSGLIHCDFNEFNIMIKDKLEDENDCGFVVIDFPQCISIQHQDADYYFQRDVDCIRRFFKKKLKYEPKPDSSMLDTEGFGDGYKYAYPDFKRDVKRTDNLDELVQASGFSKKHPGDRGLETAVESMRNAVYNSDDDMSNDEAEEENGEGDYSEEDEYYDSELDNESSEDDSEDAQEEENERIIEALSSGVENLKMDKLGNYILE

These are yes or no findings as the source states them, for the method shown. In cells and extracts the contact can be indirect. These calls come from enrichment with a bait or labelling near it, and not all partners need be listed. For some assays here: Tags and fused reporters may be left off the sequences shown.

Experiment [1] addresses TAP-tagged Rio2p (S. cerevisiae) (UniProt P40160). The experiment is described as follows: affinity purification with mass spectrometry; Rio2-TAP associated SSU precursors purified on rabbit IgG magnetic beads (1 h, 4°C, buffer MB) from strain ToY1739 expressing HA-tagged full length rpS5 or rpS5-ΔC after shut down of GAL-RPS5; iTRAQ-labelled tryptic peptides compared semi-quantitatively.

Experiment [2] has as its target T1, FLAG-tagged rpS5-ΔC (S. cerevisiae ribosomal protein S5 lacking the seven C-terminal amino acids) (S. cerevisiae) (UniProt P26783).
T1 sequence: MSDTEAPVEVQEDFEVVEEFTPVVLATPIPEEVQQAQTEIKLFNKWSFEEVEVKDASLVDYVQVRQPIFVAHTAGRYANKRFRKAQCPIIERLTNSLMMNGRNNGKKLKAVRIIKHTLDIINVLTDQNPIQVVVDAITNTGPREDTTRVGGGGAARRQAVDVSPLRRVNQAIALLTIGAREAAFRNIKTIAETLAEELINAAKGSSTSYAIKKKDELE
The experiment is described as follows: affinity purification with mass spectrometry; FLAG-rpS5-ΔC and associated RNPs purified on anti-FLAG M2 beads (90 min, 4°C) from strain ToY323 with ToP1101 after 2 h shut down of GAL-RPS5 in glucose; washed with A200 (200 mM KCl, 20 mM Tris-HCl pH 8.0, 5 mM MgAc) plus 0.2% Triton; tryptic peptides by nano-HPLC and MALDI-TOF/TOF.

B1: Nob1p (protein, UniProt Q08444 1-459)
chain: MTENQTAHVRALILDATPLITQSYTHYQNYAQSFYTTPTVFQEIKDAQARKNLEIWQSLGTLKLVHPSENSIAKVSTFAKLTGDYSVLSANDLHILALTYELEIKLNNGDWRLRKKPGDALDASKADVGTDGKQKLTEDNKKEEDSESVPKKKNKRRGGKKQKAKREAREAREAENANLELESKAEEHVEEAGSKEQICNDENIKESSDLNEVFEDADDDGDWITPENLTEAIIKDSGEDTTGSLGVEASEEDRHVALNRPENQVALATGDFAVQNVALQMNLNLMNFMSGLKIKRIRNYMLRCHACFKIFPLPKDGKPKHFCASCGGQGTLLRCAVSVDSRTGNVTPHLKSNFQWNNRGNRYSVASPLSKNSQKRYGKKGHVHSKPQENVILREDQKEYEKVIKQEEWTRRHNEKILNNWIGGGSADNYISPFAITGLKQHNVRIGKGRYVNSSKRRS
As to B1, the binding result in experiment [1] and in experiment [2] was “binds” each time.
